# According to paper PMC6805634:
# Amino acid sequences for entries named in this document (tags omitted). A change or cut given only in a name is not applied to a line headed by its entry.
# UniProt Q15910: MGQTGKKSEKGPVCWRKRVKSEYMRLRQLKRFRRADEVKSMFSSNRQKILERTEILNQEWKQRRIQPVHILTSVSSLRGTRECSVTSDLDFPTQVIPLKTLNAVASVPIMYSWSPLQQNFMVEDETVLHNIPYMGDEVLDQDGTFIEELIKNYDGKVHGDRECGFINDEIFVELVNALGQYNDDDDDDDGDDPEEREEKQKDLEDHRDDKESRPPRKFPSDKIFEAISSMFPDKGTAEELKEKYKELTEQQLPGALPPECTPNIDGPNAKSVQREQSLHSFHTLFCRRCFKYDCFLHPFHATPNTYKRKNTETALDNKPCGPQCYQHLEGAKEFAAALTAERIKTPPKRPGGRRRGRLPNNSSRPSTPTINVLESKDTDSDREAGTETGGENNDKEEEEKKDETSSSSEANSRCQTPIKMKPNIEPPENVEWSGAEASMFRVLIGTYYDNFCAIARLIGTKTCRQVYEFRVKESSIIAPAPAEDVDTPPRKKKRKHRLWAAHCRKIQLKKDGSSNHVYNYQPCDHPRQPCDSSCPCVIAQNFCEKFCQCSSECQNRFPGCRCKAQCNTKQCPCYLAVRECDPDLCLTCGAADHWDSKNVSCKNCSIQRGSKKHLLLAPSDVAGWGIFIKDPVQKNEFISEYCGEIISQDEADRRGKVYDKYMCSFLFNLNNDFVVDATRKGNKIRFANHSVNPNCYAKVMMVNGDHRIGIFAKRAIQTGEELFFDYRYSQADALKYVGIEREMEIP
# UniProt Q01196: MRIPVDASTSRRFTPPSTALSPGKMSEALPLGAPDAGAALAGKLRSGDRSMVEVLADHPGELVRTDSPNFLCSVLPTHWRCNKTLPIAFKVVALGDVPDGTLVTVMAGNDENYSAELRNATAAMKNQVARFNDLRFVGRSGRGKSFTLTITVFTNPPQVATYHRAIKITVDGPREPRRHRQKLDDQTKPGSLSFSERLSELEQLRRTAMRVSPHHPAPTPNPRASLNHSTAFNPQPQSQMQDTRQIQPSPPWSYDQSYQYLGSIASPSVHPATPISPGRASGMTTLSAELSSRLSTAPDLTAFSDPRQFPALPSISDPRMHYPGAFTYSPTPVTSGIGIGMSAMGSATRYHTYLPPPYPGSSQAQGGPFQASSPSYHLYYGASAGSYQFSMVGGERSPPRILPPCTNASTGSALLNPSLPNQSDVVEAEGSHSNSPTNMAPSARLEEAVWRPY
# UniProt Q8IXJ9: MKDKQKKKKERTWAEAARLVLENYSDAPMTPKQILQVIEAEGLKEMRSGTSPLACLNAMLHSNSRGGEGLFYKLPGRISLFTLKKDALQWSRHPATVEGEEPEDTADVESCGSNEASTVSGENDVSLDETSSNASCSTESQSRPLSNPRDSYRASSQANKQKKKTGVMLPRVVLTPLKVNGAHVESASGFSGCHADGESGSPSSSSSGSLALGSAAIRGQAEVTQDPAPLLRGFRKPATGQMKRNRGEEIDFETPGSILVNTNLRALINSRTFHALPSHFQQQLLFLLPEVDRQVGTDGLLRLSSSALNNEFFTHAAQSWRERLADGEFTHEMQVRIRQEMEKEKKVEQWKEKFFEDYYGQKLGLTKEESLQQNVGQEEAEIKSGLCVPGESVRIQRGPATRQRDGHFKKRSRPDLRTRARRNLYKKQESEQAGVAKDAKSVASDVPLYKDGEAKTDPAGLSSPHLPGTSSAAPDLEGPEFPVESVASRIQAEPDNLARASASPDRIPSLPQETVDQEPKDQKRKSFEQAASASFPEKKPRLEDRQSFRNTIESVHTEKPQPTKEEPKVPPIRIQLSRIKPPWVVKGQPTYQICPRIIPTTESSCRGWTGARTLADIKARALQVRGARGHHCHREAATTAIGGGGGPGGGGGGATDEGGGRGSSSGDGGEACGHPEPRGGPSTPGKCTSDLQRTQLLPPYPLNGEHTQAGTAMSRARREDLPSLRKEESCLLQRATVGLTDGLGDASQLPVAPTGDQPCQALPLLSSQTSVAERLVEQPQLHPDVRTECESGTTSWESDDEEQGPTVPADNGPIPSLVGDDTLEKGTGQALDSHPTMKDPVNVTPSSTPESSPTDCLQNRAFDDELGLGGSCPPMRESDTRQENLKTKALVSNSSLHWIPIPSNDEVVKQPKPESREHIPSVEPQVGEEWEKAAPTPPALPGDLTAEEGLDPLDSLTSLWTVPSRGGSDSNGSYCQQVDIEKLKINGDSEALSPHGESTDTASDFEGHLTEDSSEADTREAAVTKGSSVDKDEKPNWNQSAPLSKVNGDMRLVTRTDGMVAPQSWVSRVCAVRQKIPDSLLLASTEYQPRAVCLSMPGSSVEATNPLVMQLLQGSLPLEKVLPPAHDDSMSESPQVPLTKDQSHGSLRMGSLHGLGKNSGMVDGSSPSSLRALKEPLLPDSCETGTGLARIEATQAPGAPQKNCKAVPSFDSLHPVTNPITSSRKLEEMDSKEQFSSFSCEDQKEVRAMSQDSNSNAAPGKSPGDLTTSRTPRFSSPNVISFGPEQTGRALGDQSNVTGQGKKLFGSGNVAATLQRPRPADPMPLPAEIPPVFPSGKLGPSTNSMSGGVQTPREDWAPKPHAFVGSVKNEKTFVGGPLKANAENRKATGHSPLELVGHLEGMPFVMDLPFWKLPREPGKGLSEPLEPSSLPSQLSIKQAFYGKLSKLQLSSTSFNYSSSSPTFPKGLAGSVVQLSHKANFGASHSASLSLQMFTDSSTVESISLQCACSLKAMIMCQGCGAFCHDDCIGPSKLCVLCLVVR
# UniProt Q16665: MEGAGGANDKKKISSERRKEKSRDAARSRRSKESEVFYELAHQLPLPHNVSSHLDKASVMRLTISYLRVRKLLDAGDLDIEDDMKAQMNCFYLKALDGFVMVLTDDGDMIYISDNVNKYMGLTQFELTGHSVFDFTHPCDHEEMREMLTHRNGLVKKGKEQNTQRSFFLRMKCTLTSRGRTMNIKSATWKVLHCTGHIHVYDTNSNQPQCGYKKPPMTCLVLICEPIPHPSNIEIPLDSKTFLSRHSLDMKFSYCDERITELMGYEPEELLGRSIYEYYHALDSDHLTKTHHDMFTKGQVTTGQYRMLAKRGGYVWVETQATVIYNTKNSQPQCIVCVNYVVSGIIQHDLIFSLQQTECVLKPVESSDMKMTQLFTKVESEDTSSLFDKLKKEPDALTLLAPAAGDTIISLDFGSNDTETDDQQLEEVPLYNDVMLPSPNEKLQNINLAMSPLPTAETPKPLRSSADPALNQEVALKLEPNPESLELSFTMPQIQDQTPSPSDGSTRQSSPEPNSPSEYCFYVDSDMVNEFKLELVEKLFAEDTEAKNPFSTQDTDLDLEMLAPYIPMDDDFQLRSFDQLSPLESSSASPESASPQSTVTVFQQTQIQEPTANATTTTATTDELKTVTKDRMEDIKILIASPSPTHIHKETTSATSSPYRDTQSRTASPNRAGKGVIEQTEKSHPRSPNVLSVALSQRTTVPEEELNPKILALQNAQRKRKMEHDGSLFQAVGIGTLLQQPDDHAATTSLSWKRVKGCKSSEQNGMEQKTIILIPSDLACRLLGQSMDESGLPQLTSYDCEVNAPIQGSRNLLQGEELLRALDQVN
# These are yes or no findings as the source states them, for the method shown. Binding seen in cells or lysates may run through a third protein. Some results given as binding are weak or reduced against the parent protein; the word gives no strength.
# Legend:
# [1] = molecular target: endogenous EZH2 (K562) (human (endogenous in K562)) (UniProt Q15910); assay: co-IP; endogenous proteins, K562 whole-cell extract; non-immune IgG as negative control
# FLAG-RUNX1-R135T (human) = FLAG-RUNX1-R135T (human) (UniProt Q01196); assay: co-IP; FLAG-tagged RUNX1-WT or RUNX1-R135T transiently expressed in HEK293T or stably expressed in K562 cells, treated with 100 μM CoCl2 for 24 h; immunoprecipitation with anti-FLAG M2 affinity gel, immunoblot with HIF-1α, RUNX1 and FLAG antibodies; EV control
# FLAG-RUNX1-WT (human) = FLAG-RUNX1-WT (human) (UniProt Q01196); assay: as above
binding [1],binding (FLAG-RUNX1-R135T (human)),binding (FLAG-RUNX1-WT (human)),Substance
binds,–,–,endogenous ASXL1 protein (K562) (from UniProt Q8IXJ9 1-1541)
–,binds,binds,Hypoxia-inducible factor-1α (from UniProt Q16665 1-826)
